# Assay results published in the supplement of paper PMC10338343.
# ± gives the standard deviation. The entries are a selection whose mix differs from that of the whole data set. The uncertainty is large for many entries. The list shows a part of the results.
# What was measured:
# [1] = tested on: MILI (PIWIL2) piRISC loaded with L1MC piRNA (26 nt); assay: pre-steady-state target cleavage rate (min^-1); higher = faster piRNA-guided slicing of the target; details: guide: L1MC piRNA 5'p-UAACUAAAUACUAUGCAAGCUGUAGG
# Procedure, shortened: (§1)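 With or without 500 nM GTSF1 partner protein, 1 nM active affinity-purified piRISC carrying one synthetic guide was mixed with 0.1 nM transcribed, DNA-blocked target RNA library in HEPES–potassium acetate buffer at 33 °C for 0–8 or 0–960 min. Uncleaved targets were sequenced and normalised to depth and to weakly complementary targets, three trials were pooled, and k3 was capped at 0.0001 min^-1. The pre-steady-state cleavage rate came from a burst-and-steady-state fit.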
# [2] = tested on: EfPiwi piRISC loaded with L1MC piRNA (26 nt); assay: pre-steady-state target cleavage rate (min^-1); guide: L1MC piRNA 5'p-UAACUAAAUACUAUGCAAGCUGUAGG; MIWI and MILI are mouse PIWI proteins and EfPiwi is from a freshwater sponge; tags in brackets are library labels; higher = faster piRNA-guided slicing of the target
# Procedure, shortened: as §1
# [3] = auxiliary factor: none (no GTSF1)
# [4] = auxiliary factor: 500 nM Ephydatia muelleri Gtsf1
# [5] = auxiliary factor: none (no Gtsf1)
# [6] = auxiliary factor: 500 nM mouse GTSF1
Sequence,"pre-steady-state target cleavage rate [1, 3]","pre-steady-state target cleavage rate [2, 4]","pre-steady-state target cleavage rate [2, 5]","pre-steady-state target cleavage rate [1, 6]"
UCCUGGAUGAGCUUGCAUACUAUUUAGAUA,0.000667 ± 0.0096,0.00231 ± 0.0021,0.000699 ± 0.01,
UCCUCCUACAGCUUGCAUUCUAUUUAGUUA,0.0021 ± 0.0027,0.00259 ± 0.0028,0.000508 ± 0.0088,
UCCUGCUACAGCUAGCAUAGUAUUUUGUUA,0.00312 ± 0.0039,0.0057 ± 0.0021,0.000211 ± 0.032,
UCCUGGUACAGCUUGGAUAGUAUUUAGAUA,0.00197 ± 0.0056,0.00238 ± 0.0025,0.000273 ± 0.031,
UCCUGGAUGAGCUUGCAUAAUAUUUAGUUA,0.00207 ± 0.0034,0.00543 ± 0.0021,0.00136 ± 0.0088,
UCCUGGAUGAGCUUGCAUACAAUUUAGAAA,0.000512 ± 0.013,0.000583 ± 0.0056,0.000533 ± 0.015,
UCCUGCUACAGCUUGCAUAGUAUUUAGAUUA,0.00212 ± 0.0036,0.00658 ± 0.0023,0.00103 ± 0.0087,
UCCUGGAUGUGCUUGCAUAGUAUUAAGAUA,0.000761 ± 0.0074,0.000898 ± 0.0045,0.00108 ± 0.0091,
UCCUGCAACAGCUUGCAUAGUAUAUAGUUA,,0.00844 ± 0.0024,0.00136 ± 0.0062,0.36 ± 0.038
UCCUGGAACAGCUAGCAUAGUAUUUUGUUA,0.00222 ± 0.0029,0.00465 ± 0.003,0.000247 ± 0.036,
UCCUGCUACAGCUUGCAUAGAUUUUAGUUA,0.00216 ± 0.0028,0.00194 ± 0.0023,0.000812 ± 0.0086,
UCCUGGAUGUGCUUGCAUAGUAUUUAGUAUA,0.00202 ± 0.005,0.00507 ± 0.0027,0.000168 ± 0.073,
UCCUGCUACAGCUUGCAUAGGAUUUAGUUA,0.00135 ± 0.0053,0.00356 ± 0.001,0.00068 ± 0.01,
UCCUGGAUGAGCUUGCAUACUAUUUACUUA,0.000223 ± 0.019,0.00156 ± 0.0025,0.000158 ± 0.045,
UCCUGGAUGUCGUUGCAUAGUAAUUAGUAA,0.00172 ± 0.0038,0.000428 ± 0.009,0.000261 ± 0.03,
UCCUGGAUCAGCUUGCAUAGUAUUAUGAAA,0.000969 ± 0.0065,0.00116 ± 0.0033,0.000276 ± 0.018,
UCCUGGAUGAGCUUGCAUAGUAAUUAGUAA,0.00185 ± 0.0052,0.00197 ± 0.0019,0.00119 ± 0.0091,
UCCUGCUUCAGCUUGCAUAGAAUUUAGUUA,0.00238 ± 0.0027,0.00544 ± 0.0015,0.00271 ± 0.0045,
UCCUGGUACAGCUUGCAUAGUAUUAUCUUA,0.00201 ± 0.0041,0.00167 ± 0.0021,0.000581 ± 0.014,
UCCUGCUACAGCUUGCAUAGAAUUUAGUAA,0.00137 ± 0.0052,0.00358 ± 0.0016,0.000353 ± 0.015,
UCCUGGAUGUGCUUGGCAUAGUAUUUAGUUA,0.00258 ± 0.0036,0.00458 ± 0.0029,0.000215 ± 0.035,
UCCUGGAUCAGCUUGCAUAGUAUUGAGUUA,0.00267 ± 0.0035,0.00662 ± 0.0024,0.00183 ± 0.006,
UCCUGGAUCAGCUUGCAUAGUAUAUAGAUA,0.00156 ± 0.0041,0.00301 ± 0.0023,0.000518 ± 0.015,
UCCUGGAACAGCUUGCAUGGUAUUUAGUUA,,0.0141 ± 0.0045,0.00234 ± 0.0048,0.283 ± 0.022
UCCUGGAUGAGCUUGCAUAGAAUAUAGUUA,0.00118 ± 0.0055,0.00186 ± 0.0051,0.000137 ± 0.027,
UCCUGGAUGUCGAAGCAUAGUAAUUAGUUA,0.00205 ± 0.003,0.00193 ± 0.0044,0.000202 ± 0.029,

# Single records, as listed above:
# UCCUGGUACAGCUUGCAUAGUAUUAUCUUA in the list: pre-steady-state target cleavage rate [1, 3]: 0.00201 ± 0.0041; pre-steady-state target cleavage rate [2, 4]: 0.00167 ± 0.0021; pre-steady-state target cleavage rate [2, 5]: 0.000581 ± 0.014
# UCCUGGAUGUGCUUGCAUAGUAUUAAGAUA in the list: pre-steady-state target cleavage rate [1, 3]: 0.000761 ± 0.0074; pre-steady-state target cleavage rate [2, 4]: 0.000898 ± 0.0045; pre-steady-state target cleavage rate [2, 5]: 0.00108 ± 0.0091
